Measured values: PubChem BioAssay AID1508600 (Functional Genomics Laboratory (NCATS/FGL), 2020)
Hit rate of the full screen: of about 53,000 sequences, about 3,700 (7%) were called active.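 The calls were made as follows: active = gene knockdowns whose robust z-score for IL-1 alpha signal is at least 2 or at most -2, so actives lie on both sides; inactive = the rest.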 The list shows a part of the results.

Assay: Components of the Cytosolic LPS Sensing Pathway: Gene Identification via Genome-wide siRNA Screen;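 also: robust z of the log signal after scaling to non-targeting control siRNA wells of the plate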
Conditions: RAW264.7 macrophages, IL-1a HTRF, actives lie on both sides, screened at 100 nM (by protocol), cells primed 5 h with Pam3CSK4 first
How it was run: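 Cells (RAW264.7, 1×10^4 per well) were transfected with siRNA at 100 nM and cultured 48h at 37 degrees C. Pam3CSK4 was added for 5 hours; LipidA transfection followed for 24 hour. IL-1a was then measured by HTRF.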

Row | Sequence | z-score
1 | GGAUCCCUGUAAUAUGGCATT against Spag8 | inactive: 0.846
2 | GGGCCAUUUCAUGUUAAUUTT against Nit2 | inactive: 0.674
3 | GGUGAUUCAACUCACUUGUTT against Olfr1353 | inactive: -1.33
4 | GGCUGUGCUGAUCACCUACTT against Mettl26 | inactive: -0.0718
5 | GCCACUAUCUGGAUAAGGATT against Ftl1 | active: -3.54
6 | GGAUGCUGAAGUGAAGGACTT against Myt1 | inactive: -0.157
7 | GCCCGCCUACUUUGAAGAATT against Slc17a7 | inactive: 0.989
8 | CCUUUGCCUUCAGUUUUAUTT against Pramel20 | inactive: 0.864
9 | GGGCCUUGUUUUAGGAAUUTT against Lap3 | active: 2.2
10 | CAGGCCUGAACUUUUUAUUTT against Olfr533 | inactive: -0.162
11 | GCGAGAGUUCAAUGCGUUUTT against Pwp2 | inactive: 1.64
12 | GGAGAAAUUCGACUGAAAATT against Pcdhb13 | active: 3.47
13 | GCAGGAUAUGUAAAGGUUUTT against Gimap3 | inactive: -0.924
14 | GCUCAAUCUCUCUGAGACCTT against Vax1 | inactive: -0.0748
15 | GGCAGGGAGCUUCUAGACUTT against Kiss1 | inactive: -0.936
16 | GGAGACCAAAAUUUCUUGGTT against Sox9 | inactive: 0.0192
17 | CCUAUUGUGAGCUUAAUGCTT against Nrxn2 | inactive: -0.74
18 | GGACUUUAAAUGCAAUAUCTT against Trps1 | inactive: -0.567
19 | GCCACUCGUAUGAACAUCUTT against Ado | inactive: -0.0506
20 | GGAAGGUAAAAUUGAGAUCTT against Trpv2 | inactive: -0.364
21 | GGACGGACAUUUAUGACCCTT against Cpsf3 | inactive: -0.163
22 | GGUUUUAGAGGAAAUCGUATT against Arl6ip4 | inactive: 0.296
23 | CCCGGAUAUCCUGUGUCUUTT against Angel1 | inactive: 0.0229
24 | GCUUGUCAAAUAAACCAAUTT against Vdr | inactive: -0.86
25 | GGCGGUUAGACAUUAUGGATT against Plac9a | inactive: 1.25
26 | CGACCUAAUCACUCAGCUUTT against Tubgcp2 | inactive: 1.24
27 | GGUACUGGACCAAAUUGCUTT against Ppp1r15b | active: 2.26
28 | GGUGACAAACUUGAAGACCTT against Entr1 | inactive: 1.98
29 | GGCCAGACACCAACAGAAATT against Adam23 | inactive: -0.985
30 | GGUUUACGAAUUCUAUCCATT against Lrtm2 | inactive: 1.19

2 entries from above in a different format.
GGACGGACAUUUAUGACCCTT against Cpsf3
  z-score: inactive: -0.163
GGUUUUAGAGGAAAUCGUATT against Arl6ip4
  z-score: inactive: 0.296
